Source: the supplement of paper PMC12819154, “High-throughput peptide-centric local stability assay extends protein–ligand identification to membrane proteins, tissues and bacteria” (Nature Structural & Molecular Biology, 2025)
The list shows a part of the results. Most entries show no effect beyond the scatter of the controls.

By UniProt entry, the sequences of proteins in these tests, tags left out. Where a name states a change or a piece, a line headed by the entry shows the natural chain unless it says otherwise.
UniProt Q8BNI4: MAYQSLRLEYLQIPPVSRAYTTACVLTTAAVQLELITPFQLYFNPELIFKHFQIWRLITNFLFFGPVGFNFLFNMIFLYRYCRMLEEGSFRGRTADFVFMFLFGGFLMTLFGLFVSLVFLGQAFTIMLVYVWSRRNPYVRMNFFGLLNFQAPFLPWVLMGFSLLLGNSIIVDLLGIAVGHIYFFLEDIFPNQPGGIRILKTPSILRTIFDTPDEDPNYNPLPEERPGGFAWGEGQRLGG
UniProt Q8BU11: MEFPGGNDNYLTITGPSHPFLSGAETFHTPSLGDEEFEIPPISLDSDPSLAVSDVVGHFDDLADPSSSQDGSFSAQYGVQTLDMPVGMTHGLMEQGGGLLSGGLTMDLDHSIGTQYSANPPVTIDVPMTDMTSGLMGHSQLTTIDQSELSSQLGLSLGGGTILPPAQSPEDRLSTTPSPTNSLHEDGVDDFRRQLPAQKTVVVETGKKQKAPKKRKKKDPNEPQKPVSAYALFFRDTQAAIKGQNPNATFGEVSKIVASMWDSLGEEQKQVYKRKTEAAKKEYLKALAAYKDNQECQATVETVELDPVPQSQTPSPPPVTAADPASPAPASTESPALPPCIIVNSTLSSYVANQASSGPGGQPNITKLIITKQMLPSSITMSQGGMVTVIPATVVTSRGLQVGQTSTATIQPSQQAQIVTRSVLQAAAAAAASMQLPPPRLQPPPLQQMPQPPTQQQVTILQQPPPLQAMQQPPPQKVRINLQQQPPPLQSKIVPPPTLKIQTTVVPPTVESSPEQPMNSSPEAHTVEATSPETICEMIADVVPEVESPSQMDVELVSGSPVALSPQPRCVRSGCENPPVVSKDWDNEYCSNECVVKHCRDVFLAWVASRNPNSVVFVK
UniProt Q8BVD5: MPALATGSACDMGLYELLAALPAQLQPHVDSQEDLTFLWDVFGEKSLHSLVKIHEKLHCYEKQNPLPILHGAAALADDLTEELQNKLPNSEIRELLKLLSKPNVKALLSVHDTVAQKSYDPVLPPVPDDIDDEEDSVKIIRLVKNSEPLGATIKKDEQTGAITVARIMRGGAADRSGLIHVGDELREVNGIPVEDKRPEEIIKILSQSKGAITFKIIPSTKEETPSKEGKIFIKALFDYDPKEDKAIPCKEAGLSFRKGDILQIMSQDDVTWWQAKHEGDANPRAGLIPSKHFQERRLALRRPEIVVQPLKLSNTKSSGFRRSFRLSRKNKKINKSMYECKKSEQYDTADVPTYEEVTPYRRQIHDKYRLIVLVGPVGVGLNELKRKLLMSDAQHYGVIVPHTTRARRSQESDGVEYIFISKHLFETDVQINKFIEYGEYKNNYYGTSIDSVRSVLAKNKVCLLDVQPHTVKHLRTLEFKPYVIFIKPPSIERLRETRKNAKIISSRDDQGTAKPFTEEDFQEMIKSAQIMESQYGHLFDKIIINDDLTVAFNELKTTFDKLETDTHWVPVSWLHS
UniProt Q8BKT6: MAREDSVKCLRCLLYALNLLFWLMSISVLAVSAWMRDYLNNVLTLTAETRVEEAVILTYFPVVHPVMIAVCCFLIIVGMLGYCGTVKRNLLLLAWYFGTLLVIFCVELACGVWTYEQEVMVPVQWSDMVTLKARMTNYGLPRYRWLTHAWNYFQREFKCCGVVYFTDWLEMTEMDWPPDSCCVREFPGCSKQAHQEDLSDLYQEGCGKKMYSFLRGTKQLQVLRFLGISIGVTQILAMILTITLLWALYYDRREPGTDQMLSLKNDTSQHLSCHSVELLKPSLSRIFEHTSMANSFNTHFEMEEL
UniProt Q8BMS9: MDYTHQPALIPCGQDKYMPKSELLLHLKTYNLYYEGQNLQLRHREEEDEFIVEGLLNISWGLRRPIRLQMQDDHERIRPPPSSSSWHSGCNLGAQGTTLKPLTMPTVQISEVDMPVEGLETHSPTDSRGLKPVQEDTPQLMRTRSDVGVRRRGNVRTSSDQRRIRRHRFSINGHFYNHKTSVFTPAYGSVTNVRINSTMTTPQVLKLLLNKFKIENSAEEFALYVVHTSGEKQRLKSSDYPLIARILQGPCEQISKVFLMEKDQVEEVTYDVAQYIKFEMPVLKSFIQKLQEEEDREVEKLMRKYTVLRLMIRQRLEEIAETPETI
UniProt Q8BNN1: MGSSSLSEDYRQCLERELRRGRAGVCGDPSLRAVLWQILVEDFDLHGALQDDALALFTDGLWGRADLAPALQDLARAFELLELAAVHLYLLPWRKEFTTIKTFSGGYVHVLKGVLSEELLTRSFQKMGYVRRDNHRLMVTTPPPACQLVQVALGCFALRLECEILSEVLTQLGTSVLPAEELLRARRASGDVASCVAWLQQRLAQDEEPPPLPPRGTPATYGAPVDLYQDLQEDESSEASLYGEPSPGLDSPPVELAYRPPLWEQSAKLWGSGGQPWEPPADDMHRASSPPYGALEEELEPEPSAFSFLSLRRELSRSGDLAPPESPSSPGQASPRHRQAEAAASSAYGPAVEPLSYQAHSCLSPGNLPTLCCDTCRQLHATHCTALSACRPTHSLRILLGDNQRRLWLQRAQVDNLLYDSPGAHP
UniProt Q8BQQ1: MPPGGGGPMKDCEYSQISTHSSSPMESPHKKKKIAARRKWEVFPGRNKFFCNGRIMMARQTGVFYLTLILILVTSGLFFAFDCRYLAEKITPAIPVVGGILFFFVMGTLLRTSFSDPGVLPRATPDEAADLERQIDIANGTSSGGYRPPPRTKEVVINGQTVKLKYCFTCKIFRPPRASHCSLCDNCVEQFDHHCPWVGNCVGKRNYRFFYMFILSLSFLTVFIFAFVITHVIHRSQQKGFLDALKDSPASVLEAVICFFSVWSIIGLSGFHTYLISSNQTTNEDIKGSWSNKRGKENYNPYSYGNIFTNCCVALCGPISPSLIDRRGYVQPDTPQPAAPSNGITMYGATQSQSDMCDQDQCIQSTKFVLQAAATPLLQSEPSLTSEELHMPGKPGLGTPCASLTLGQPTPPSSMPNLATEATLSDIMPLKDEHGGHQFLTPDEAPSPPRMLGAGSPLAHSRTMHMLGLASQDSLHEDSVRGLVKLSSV
UniProt Q8BR37: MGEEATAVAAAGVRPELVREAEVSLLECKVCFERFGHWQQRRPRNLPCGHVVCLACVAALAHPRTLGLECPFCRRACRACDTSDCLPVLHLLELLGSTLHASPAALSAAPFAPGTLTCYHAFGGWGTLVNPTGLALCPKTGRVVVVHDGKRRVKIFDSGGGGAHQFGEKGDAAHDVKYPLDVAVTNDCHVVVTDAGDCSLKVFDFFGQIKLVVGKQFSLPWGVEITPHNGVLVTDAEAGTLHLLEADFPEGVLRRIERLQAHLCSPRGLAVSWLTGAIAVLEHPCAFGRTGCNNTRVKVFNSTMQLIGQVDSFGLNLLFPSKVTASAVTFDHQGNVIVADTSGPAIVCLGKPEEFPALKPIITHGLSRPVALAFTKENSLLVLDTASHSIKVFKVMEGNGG
UniProt Q8BP01: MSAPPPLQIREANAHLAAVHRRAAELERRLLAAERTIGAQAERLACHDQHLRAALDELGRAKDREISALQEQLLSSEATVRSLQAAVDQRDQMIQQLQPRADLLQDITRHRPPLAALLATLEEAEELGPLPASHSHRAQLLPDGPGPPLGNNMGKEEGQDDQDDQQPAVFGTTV
UniProt Q8BQZ5, whole entry: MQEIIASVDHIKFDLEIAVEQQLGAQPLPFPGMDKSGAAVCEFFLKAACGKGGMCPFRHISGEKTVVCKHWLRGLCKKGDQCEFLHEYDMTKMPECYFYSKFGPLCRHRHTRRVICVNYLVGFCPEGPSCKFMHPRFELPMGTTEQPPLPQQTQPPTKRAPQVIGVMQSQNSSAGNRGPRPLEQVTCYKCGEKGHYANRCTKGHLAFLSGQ

These targets were tested with CN[C@@H]1C[C@H]2O[C@@](C)([C@@H]1OC)n1c3ccccc3c3c4c(c5c6ccccc6n2c5c31)C(=O)NC4 [staurosporine] (assay: log2 fold change of tryptic peptide abundance, ligand vs vehicle (limited proteolysis) (log2 ratio); higher = more trypsin-susceptible (destabilized)). Settings: ligand concentration: 20 uM; sample: mouse liver crude lysate; replicate design: treated separately.

Row | Target | log2 fold change
1 | UniProt Q8BNI4 (peptide sequence: PGGFAWGEGQR, peptide start residue: 226) | 0.0924
2 | UniProt Q8BU11 (peptide sequence: TVVVETGKK, peptide start residue: 200) | -0.154
3 | UniProt Q8BVD5 (peptide sequence: NSEPLGATIK, peptide start residue: 145) | -0.22
4 | UniProt Q8BKT6 (peptide sequence: NDTSQHLSCHSVELLKPSLSR, peptide start residue: 265) | -0.238
5 | UniProt Q8BMS9 (peptide sequence: ILQGPCEQISK, peptide start residue: 246) | 0.696
6 | UniProt Q8BNN1 (peptide sequence: LWGSGGQPWEPPADDMHR, peptide start residue: 269) | 0.14
7 | UniProt Q8BKT8 (peptide sequence: ADPSAQSEGEK, peptide start residue: 202) | -0.323
8 | UniProt Q8BQQ1 (peptide sequence: MLGAGSPLAHSR, peptide start residue: 451) | -0.3
9 | UniProt Q8BR37 (peptide sequence: FGHWQQR, peptide start residue: 35) | -0.152
10 | UniProt Q8BP01 (peptide sequence: SLQAAVDQR, peptide start residue: 82) | -0.301
11 | UniProt Q8BQZ5 (peptide sequence: GHLAFLSGQ, peptide start residue: 203) | 0.442

Part of the list above in another layout:
Row	Target	log2 fold change
2	UniProt Q8BU11 (peptide sequence: TVVVETGKK, peptide start residue: 200)	-0.154
3	UniProt Q8BVD5 (peptide sequence: NSEPLGATIK, peptide start residue: 145)	-0.22
